Reference: the supplement of paper PMC10849652
The list shows a part of the results.

Protein sequences, listed by entry. Tags and fused reporters are not part of them. Lines headed by an entry give the natural chain unless they say otherwise; changes in a name come on top.
UniProt Q9Y3T6: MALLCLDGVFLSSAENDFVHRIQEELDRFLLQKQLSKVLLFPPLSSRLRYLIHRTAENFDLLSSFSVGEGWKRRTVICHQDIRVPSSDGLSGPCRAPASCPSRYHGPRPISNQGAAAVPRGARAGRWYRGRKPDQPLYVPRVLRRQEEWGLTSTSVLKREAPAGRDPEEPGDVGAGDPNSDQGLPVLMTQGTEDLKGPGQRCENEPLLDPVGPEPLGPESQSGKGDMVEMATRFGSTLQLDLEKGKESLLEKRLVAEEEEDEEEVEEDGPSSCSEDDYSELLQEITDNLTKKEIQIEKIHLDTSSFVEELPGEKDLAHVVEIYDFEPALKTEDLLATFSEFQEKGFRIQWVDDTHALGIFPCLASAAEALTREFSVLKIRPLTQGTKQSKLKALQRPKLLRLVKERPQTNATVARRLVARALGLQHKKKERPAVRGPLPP
UniProt Q8N0Z8: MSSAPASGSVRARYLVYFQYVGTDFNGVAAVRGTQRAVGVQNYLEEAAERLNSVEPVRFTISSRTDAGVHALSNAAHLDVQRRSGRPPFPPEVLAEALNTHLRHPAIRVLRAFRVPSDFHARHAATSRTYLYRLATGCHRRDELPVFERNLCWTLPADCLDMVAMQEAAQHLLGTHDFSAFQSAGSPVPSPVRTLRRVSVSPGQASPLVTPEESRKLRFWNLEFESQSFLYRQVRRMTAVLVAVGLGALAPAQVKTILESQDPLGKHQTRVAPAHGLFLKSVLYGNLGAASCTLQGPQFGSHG
UniProt Q99952: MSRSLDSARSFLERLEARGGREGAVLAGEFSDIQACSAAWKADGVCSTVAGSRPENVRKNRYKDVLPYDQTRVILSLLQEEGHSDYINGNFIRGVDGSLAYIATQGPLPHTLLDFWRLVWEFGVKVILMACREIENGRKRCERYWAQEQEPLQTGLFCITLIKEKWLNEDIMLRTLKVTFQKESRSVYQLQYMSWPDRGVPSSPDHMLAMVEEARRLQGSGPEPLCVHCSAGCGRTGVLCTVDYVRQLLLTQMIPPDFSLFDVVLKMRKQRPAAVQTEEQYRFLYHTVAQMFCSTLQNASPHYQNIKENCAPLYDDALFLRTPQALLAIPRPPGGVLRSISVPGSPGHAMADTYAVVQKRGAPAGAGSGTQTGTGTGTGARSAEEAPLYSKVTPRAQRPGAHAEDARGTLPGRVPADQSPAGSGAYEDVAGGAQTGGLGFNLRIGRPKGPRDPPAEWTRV
UniProt Q9UJV8: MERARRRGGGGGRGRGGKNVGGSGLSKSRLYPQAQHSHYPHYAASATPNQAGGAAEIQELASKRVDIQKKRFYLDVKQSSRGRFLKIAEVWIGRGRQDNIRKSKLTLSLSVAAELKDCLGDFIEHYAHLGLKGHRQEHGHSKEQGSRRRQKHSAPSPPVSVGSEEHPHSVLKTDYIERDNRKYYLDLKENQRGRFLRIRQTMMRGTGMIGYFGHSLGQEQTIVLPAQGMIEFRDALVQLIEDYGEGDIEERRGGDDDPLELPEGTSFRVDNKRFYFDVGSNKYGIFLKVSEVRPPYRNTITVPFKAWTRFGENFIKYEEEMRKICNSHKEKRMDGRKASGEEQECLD
UniProt O14818: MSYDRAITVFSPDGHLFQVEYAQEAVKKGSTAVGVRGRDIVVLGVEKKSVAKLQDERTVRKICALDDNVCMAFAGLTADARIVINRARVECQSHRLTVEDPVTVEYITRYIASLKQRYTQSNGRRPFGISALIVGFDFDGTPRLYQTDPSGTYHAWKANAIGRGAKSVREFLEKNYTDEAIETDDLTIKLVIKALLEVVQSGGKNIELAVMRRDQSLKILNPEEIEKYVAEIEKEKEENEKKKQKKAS
UniProt Q9P2W1: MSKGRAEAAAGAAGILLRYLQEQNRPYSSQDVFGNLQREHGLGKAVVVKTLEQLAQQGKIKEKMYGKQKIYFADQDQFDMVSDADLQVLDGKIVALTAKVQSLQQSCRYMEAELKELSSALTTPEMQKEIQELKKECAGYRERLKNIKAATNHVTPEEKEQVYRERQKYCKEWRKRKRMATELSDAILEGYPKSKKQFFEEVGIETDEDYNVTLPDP
UniProt Q12913: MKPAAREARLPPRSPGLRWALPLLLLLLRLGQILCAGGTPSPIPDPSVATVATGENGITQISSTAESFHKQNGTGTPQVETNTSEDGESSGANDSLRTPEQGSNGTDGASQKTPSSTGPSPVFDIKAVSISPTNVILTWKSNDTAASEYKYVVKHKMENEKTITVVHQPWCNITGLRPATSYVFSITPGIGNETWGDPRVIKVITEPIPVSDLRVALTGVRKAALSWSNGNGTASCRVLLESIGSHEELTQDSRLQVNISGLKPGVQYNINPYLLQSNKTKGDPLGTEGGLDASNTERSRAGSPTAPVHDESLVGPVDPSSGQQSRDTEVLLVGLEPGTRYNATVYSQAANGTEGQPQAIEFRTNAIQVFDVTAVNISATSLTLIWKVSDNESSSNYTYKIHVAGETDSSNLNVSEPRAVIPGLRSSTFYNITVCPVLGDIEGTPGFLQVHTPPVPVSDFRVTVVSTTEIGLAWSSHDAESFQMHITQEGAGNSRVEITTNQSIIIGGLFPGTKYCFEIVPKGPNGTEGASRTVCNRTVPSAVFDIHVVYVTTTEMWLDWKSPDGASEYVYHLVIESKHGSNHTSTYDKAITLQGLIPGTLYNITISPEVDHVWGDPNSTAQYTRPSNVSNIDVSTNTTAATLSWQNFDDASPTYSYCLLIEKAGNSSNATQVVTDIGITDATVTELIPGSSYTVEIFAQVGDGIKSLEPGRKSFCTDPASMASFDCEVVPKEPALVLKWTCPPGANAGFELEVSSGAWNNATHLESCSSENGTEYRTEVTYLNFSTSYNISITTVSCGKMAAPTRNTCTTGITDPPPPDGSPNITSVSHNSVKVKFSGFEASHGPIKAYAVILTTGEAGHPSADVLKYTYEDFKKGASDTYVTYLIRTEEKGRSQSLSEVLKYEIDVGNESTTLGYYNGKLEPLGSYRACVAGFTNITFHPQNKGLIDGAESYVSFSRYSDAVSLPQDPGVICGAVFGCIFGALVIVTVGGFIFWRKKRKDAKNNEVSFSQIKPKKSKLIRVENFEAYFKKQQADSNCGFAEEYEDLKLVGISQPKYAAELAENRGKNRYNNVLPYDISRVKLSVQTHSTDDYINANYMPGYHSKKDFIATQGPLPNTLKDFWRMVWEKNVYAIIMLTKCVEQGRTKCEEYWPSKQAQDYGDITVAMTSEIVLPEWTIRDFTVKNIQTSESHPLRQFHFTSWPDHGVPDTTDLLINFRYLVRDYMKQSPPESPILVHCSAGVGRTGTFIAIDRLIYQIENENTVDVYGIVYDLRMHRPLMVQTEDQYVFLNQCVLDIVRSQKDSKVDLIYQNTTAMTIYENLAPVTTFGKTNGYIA
UniProt P28062: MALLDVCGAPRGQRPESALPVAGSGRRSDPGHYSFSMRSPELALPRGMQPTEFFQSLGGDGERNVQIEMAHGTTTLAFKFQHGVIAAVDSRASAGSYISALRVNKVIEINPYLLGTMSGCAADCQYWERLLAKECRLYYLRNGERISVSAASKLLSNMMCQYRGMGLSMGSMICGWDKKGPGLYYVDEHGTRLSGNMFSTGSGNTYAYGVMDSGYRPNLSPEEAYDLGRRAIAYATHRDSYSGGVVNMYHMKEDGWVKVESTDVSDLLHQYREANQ
UniProt Q9UKA9: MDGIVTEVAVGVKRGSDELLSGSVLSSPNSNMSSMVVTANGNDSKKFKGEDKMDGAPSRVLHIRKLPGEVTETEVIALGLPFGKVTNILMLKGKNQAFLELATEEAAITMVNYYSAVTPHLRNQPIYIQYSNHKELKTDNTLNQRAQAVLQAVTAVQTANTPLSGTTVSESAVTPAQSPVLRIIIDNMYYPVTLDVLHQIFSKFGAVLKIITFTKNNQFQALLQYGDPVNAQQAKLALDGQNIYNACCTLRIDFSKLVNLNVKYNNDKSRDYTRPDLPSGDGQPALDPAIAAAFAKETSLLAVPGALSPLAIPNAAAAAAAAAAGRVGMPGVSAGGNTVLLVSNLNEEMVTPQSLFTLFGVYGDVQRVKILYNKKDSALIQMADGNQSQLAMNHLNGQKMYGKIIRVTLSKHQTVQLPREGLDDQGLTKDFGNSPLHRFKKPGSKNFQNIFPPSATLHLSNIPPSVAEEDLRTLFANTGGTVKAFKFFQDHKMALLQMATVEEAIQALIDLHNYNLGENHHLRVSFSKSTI
UniProt Q14671: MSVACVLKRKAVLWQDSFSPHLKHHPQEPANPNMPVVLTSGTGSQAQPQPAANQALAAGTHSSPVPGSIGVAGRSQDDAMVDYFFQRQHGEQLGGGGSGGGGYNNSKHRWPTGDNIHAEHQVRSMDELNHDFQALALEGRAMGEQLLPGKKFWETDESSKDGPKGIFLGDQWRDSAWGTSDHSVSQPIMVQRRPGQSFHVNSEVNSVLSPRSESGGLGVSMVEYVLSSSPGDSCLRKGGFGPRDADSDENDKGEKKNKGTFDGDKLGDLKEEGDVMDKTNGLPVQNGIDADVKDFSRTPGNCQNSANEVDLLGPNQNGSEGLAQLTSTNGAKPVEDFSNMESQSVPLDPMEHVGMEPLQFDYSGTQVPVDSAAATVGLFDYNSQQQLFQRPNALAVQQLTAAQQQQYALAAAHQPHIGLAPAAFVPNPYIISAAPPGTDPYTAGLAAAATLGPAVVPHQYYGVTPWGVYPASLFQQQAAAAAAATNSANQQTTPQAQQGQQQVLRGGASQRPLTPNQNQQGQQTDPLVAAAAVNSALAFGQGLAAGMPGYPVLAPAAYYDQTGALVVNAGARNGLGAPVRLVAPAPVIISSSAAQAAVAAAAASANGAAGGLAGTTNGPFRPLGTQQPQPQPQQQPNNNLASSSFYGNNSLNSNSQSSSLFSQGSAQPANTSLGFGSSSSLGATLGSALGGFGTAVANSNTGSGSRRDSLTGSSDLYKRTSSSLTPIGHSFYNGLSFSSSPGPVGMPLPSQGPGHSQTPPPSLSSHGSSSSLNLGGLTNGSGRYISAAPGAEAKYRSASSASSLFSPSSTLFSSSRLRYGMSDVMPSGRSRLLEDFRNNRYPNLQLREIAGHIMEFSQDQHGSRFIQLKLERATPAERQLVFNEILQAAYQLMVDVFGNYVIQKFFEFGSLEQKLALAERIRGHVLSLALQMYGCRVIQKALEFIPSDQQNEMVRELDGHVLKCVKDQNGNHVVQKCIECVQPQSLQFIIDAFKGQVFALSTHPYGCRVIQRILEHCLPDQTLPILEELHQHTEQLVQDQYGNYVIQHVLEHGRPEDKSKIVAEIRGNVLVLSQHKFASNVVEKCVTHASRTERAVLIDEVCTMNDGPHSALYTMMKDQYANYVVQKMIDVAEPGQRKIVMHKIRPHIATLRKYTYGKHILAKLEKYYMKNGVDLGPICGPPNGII
UniProt Q7Z5L2: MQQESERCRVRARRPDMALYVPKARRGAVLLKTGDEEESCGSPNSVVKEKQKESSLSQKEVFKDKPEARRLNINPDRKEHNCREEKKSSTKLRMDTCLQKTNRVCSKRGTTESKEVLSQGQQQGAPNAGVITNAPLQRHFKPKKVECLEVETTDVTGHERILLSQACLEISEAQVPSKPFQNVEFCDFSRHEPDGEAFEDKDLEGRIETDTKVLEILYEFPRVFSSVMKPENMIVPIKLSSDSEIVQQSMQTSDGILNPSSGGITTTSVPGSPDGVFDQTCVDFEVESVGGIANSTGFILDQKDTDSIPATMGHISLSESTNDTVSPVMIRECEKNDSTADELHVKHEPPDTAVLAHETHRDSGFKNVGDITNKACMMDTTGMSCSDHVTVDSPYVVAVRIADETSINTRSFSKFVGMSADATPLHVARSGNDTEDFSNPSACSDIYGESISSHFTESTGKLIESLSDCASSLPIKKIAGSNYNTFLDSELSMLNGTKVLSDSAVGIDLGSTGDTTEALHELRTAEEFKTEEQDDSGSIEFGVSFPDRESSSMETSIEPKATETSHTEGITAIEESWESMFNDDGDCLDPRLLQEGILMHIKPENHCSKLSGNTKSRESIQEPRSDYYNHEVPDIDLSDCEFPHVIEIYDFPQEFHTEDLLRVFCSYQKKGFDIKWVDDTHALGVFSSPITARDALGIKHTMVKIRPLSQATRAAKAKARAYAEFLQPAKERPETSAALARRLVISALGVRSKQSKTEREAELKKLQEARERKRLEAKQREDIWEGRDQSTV
UniProt P35236: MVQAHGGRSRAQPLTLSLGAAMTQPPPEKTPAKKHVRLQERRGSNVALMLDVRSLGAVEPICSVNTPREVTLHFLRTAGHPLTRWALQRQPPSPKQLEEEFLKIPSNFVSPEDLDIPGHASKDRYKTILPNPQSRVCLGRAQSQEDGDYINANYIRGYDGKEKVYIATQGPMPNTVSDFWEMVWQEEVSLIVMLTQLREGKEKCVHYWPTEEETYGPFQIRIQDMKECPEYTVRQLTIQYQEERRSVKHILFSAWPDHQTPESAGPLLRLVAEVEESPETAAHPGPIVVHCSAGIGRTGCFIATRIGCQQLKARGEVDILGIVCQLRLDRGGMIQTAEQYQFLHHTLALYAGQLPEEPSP

Key:
Assay in all cases: log2 fold change, soluble protein after heating vs DMSO (PISA); higher = thermal stabilisation; K562 cells, 10 uM, 30 min; active = over 0.2 and 3.5 SD of the protein, either way, in both replicates (recomputed)
saracatinib = compound: CN1CCN(CCOc2cc(OC3CCOCC3)c3c(Nc4c(Cl)ccc5c4OCO5)ncnc3c2)CC1 [saracatinib]
How it was run: (§1)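 Soluble protein was quantified by TMTpro 16plex LC-MS/MS after channel sums were equalised. It was obtained as the supernatant after 21,000xg for 90 min from pooled aliquots of K562 cells (2×10^6 cells/mL, 10 μM compound, 30 min) heated for 3 min across 48°C-58°C and extracted in PBS with 0.5% NP-40 at 4°C. Thermal stability values are relative to control samples and come from duplicates. They are given as log2 fold changes.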

[1] = compound: CNC(=O)C1=CC=CC=C1NC2=NC(=NC=C2Cl)NC3=C(C=C(C=C3)N4CCOCC4)OC
How it was run: as §1

defactinib = compound: CNC(=O)c1ccc(Nc2ncc(C(F)(F)F)c(NCc3nccnc3N(C)S(C)(=O)=O)n2)cc1 [defactinib]
How it was run: as §1

rucaparib = compound: CNCc1ccc(-c2[nH]c3cc(F)cc4c3c2CCNC4=O)cc1 [rucaparib]
How it was run: as §1

[2] = compound: CNc1nc(-c2ccc3c(N)n[nH]c3c2)cc(N2C[C@@H](C(=O)NC3CCCCC3)CC[C@H]2C)n1
How it was run: as §1

encorafenib = compound: COC(=O)N[C@@H](C)CNc1nccc(-c2cn(C(C)C)nc2-c2cc(Cl)cc(NS(C)(=O)=O)c2F)n1 [encorafenib]
How it was run: as §1

[3] = compound: COC(=O)[C@H](CCSC)NC(=O)C1=C(C=C(C=C1)NC[C@H](CS)N)C2=CC=CC=C2
How it was run: as §1

sotrastaurin = compound: CN1CCN(c2nc(C3=C(c4c[nH]c5ccccc45)C(=O)NC3=O)c3ccccc3n2)CC1 [sotrastaurin]
How it was run: as §1

alvocidib = compound: CN1CC[C@H](c2c(O)cc(O)c3c(=O)cc(-c4ccccc4Cl)oc23)[C@H](O)C1 [alvocidib]
How it was run: as §1

Tubastatin A = compound: CN1CCc2c(c3ccccc3n2Cc2ccc(C(=O)NO)cc2)C1 [Tubastatin A]
How it was run: as §1

Measured: log2 fold change

PRUNE2 isoform 3 (UniProt Q8WUY3)
inactive: saracatinib -0.002 | [1] -0.014 | defactinib 0.029 | rucaparib 0.398 | [2] -0.042 | encorafenib 0.028 | [3] -0.12

PUS1 (UniProt Q9Y606)
inactive: sotrastaurin -0.039 | alvocidib -0.132 | Tubastatin A 0.192 | [1] -0.003 | defactinib -0.299 | rucaparib 0.669 | encorafenib 0.023 | [3] -0.232

PTP4A3 (UniProt O75365)
active: defactinib -1.14
inactive: [3] -0.029

R3HCC1 (UniProt Q9Y3T6)
inactive: sotrastaurin 0.023 | alvocidib -0.064 | Tubastatin A -0.054 | [1] -0.111 | defactinib -0.083 | [3] -0.216

PUSL1 (UniProt Q8N0Z8)
inactive: sotrastaurin 0.047 | alvocidib 0.328 | Tubastatin A 0.036 | [1] -0.19 | rucaparib -0.105 | encorafenib 0.02

PTRH1 (UniProt Q86Y79)
inactive: saracatinib -0.069 | alvocidib -0.011 | [2] -0.005

PSMC1 (UniProt G3V4X1)
inactive: [1] -0.011

PUM2 isoform 3 (UniProt Q8TB72)
inactive: saracatinib -0.077 | alvocidib -0.093 | [2] -0.082

PTGER3 isoform 2 (UniProt P43115)
inactive: [1] 0.08

PTPN18 (UniProt Q99952)
inactive: sotrastaurin 0.164 | [1] -0.001 | rucaparib 0.085 | encorafenib 0.005

PURG (UniProt Q9UJV8)
inactive: sotrastaurin 0.142

PSMA7 isoform 2 (UniProt O14818)
inactive: sotrastaurin 0.185 | alvocidib 0.16 | Tubastatin A -0.055 | [1] -0.091 | defactinib 0.034 | rucaparib -0.036 | encorafenib -0.102 | [3] 0.115

PSD3 (UniProt Q9NYI0)
inactive: defactinib -0.004 | rucaparib -0.03 | encorafenib 0.003 | [3] -0.019

PSMC3IP (UniProt Q9P2W1)
inactive: alvocidib -0.027 | Tubastatin A -0.028 | [1] -0.038 | defactinib -0.185 | rucaparib 0.122 | encorafenib 0 | [3] 0.023

PTEN isoform 2 (UniProt P60484)
inactive: [1] -0.247 | rucaparib -0.108 | encorafenib 0.015

PSMB9 (UniProt P28065)
inactive: sotrastaurin 0.074 | [1] 0.062 | defactinib -0.008 | rucaparib 0.296 | encorafenib -0.22 | [3] 0.094

PSMB10 (UniProt P40306)
inactive: sotrastaurin -0.066 | defactinib 0.072 | rucaparib -0.115 | encorafenib 0.094 | [3] -0.017

PSMA3 (UniProt H0YJ03)
inactive: saracatinib -0.185 | Tubastatin A 0.314 | defactinib -0.023 | rucaparib 0.151 | [2] 0.067 | encorafenib -0.142 | [3] 0.087

PUF60 isoform 2 (UniProt Q9UHX1)
inactive: saracatinib 0.107 | Tubastatin A 0.202 | defactinib -0.165 | [2] -0.403 | [3] -0.089

PSMD4 (UniProt Q5VWC4)
inactive: sotrastaurin -0.027 | alvocidib 0.018 | defactinib 0.073 | rucaparib 0.285 | encorafenib 0.118 | [3] -0.052

PSIP1 (UniProt V9GYT7)
inactive: saracatinib 0.115 | alvocidib 0.023 | Tubastatin A -0.034 | rucaparib 0.076 | [2] -0.216 | encorafenib -0.086

PYCARD isoform 2 (UniProt Q9ULZ3)
inactive: [1] -0.264

PTPRJ (UniProt Q12913)
inactive: sotrastaurin -0.202

Reprinted at random: 2 entries already listed
PTPRJ (UniProt Q12913)
inactive: sotrastaurin -0.202

PUF60 isoform 2 (UniProt Q9UHX1)
inactive: saracatinib 0.107 | Tubastatin A 0.202 | defactinib -0.165 | [2] -0.403 | [3] -0.089

(listing goes on)

PSD2 (UniProt Q9BQI7)
inactive: sotrastaurin 0.004 | defactinib 0.082 | [3] 0.022

PSMB8 (UniProt P28062)
inactive: alvocidib 0.001 | [1] 0.038

PTBP2 isoform 3 (UniProt Q9UKA9)
inactive: sotrastaurin -0.059 | [1] 0.141

PUM1 (UniProt Q14671)
inactive: saracatinib -0.155 | Tubastatin A 0 | [1] -0.348 | [2] -0.232

R3HCC1L (UniProt Q7Z5L2)
inactive: sotrastaurin 0.038 | alvocidib 0.082 | Tubastatin A 0.081 | [1] -0.096 | defactinib -0.358 | [3] -0.144

PSMD8 (UniProt K7ERW6)
inactive: Tubastatin A 0.235 | defactinib 0.011 | [3] 0.066

PYCR1 (UniProt J3QKT4)
inactive: Tubastatin A -0.053 | [1] -0.111 | defactinib -0.084 | rucaparib 0.026 | encorafenib -0.236 | [3] 0.199

PTPN7 isoform 3 (UniProt P35236)
inactive: sotrastaurin -0.374 | alvocidib 0.037 | [1] -0.15 | defactinib 0.006 | rucaparib 0.53 | encorafenib 0.342 | [3] -0.137

PTPN9 (UniProt P43378)
inactive: saracatinib -0.056 | [2] -0.002

PSMA3 (UniProt G3V4X5)
inactive: defactinib 0.061 | [3] -0.208
